Assay results taken from PubChem BioAssay AID445 (National Center for Advancing Translational Sciences (NCATS), 2006).
Some of the results follow. Further columns of the screen follow, without active or inactive calls. Most of these compounds were active or inconclusive in the main read-out, so they are no random draw. Words in brackets tell the shape of the fitted curve; partial curves, single points and poor fits give uncertain potencies.

Test: IkB Signaling
Conditions: ABC-DLBCL IkBa-CBG/CBR dual luciferase ratio (green luciferase fused to IkBa over red control in OCI-Ly3 lymphoma cells), 4 h; measured here: control luc red channel unless noted
Procedure, shortened: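 In this assay, an IκBα–CBG68 fusion accumulates when IKK-driven degradation is blocked; native CBR normalizes for cell number. OCI-Ly3 cells were treated 4 h with compound and doxycycline, then green and red light read after Chroma-Glo addition.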
With `COc1ccc(C2=NS(=O)(=O)N(C)C(C(=O)N(C)Cc3ccccc3)=C2)cc1OC` the AC50 was 0.0398 µM [falling, full curve]. With `Cc1ccccc1OCc1nc2ccccc2n1Cc1ccccc1Cl` the AC50 was 31.6 µM [falling, partial curve]. With `CC(=O)c1ccc(NC(=O)CSc2cn(CC(=O)N(C(C)C)C(C)C)c3ccccc23)cc1` the AC50 was 15.8 µM [falling, single point]. For `CCS(=O)(=O)N1CCc2cc(C(=O)Nc3cccc(C(C)=O)c3)ccc21`, the AC50 was 25.1 µM [falling, partial curve]. In the case of `CCCCN(CC)C(=O)CCNS(=O)(=O)c1ccc2c(c1)c(=O)n(C)c(=O)n2C`, the AC50 is reported as 39.8 µM [falling, single point]. With `CCCOc1cccc(C2c3c(-c4ccccc4O)n[nH]c3C(=O)N2Cc2ccco2)c1` (configuration not stated) the AC50 was 25.1 µM [falling, partial curve]. With `CC(C)CCn1c(Oc2ccccc2F)nc2c1c(=O)n(C)c(=O)n2C` the AC50 was 5.01 µM [falling, partial curve]. For `CCCCN1C(=O)C(O)(CC(=O)c2ccco2)c2cc(Br)ccc21` (configuration not stated), the AC50 was 3.98 µM [rising, full curve, poor fit] [measured here: IkB-luc green channel]. With `COc1ccc(C(CNC(=O)c2oc3cc(C)c(Cl)cc3c2C)N2CCCCC2)cc1` (configuration not stated) the AC50 was 1 µM [falling, partial curve]. For `O=C(Cn1nc(-c2ccc(Cl)cc2)c2ccccc2c1=O)Nc1cccc(C(F)(F)F)c1`, the AC50 was 6.31 µM [falling, partial curve]. In the case of `Cn1c(=O)c(=O)n(C)c2cc(C(=O)NCc3ccccc3Cl)ccc21`, the AC50 is reported as 0.398 µM [rising, single point]. In the case of `COC(=O)c1scc(-c2ccc(C)cc2)c1S(=O)(=O)N1CCN(c2ccc(C)cc2C)CC1`, the AC50 is reported as 7.94 µM [falling, partial curve]. With `COc1cccc(Nc2nc3ccccc3c3nncn23)c1` the AC50 was 39.8 µM [falling, single point]. With `Cn1c(SCc2cc(=O)c3cc(Cl)ccc3[nH]2)nnc1-c1ccccc1` the AC50 was 25.1 µM [falling, partial curve]. For `CCc1cc(=O)oc2c(C)c3c(cc12)CN(CCc1ccccc1OC)CO3`, the AC50 was 20 µM [falling, partial curve]. For `COCCCNC(=O)c1sc2nc(C)c(C(=O)Nc3ccc(C)cc3C)c(-c3ccccc3Cl)c2c1N`, the AC50 was 25.1 µM [falling, partial curve]. With `CCc1ccc2oc(-c3ccc(NC(=O)c4cc5ccccc5o4)cc3)nc2c1` the AC50 was 0.794 µM [falling, full curve].
